In paper PMC6954894:
These are yes or no findings as the source states them, for the method shown. For part of these data: In cells and extracts the contact can be indirect. Some binding calls cover weakened binding; strength is not graded here.

By UniProt entry, the sequences of proteins in these tests, tags left out. Residues count along the entry.
UniProt Q9QUK6, residues 26-835: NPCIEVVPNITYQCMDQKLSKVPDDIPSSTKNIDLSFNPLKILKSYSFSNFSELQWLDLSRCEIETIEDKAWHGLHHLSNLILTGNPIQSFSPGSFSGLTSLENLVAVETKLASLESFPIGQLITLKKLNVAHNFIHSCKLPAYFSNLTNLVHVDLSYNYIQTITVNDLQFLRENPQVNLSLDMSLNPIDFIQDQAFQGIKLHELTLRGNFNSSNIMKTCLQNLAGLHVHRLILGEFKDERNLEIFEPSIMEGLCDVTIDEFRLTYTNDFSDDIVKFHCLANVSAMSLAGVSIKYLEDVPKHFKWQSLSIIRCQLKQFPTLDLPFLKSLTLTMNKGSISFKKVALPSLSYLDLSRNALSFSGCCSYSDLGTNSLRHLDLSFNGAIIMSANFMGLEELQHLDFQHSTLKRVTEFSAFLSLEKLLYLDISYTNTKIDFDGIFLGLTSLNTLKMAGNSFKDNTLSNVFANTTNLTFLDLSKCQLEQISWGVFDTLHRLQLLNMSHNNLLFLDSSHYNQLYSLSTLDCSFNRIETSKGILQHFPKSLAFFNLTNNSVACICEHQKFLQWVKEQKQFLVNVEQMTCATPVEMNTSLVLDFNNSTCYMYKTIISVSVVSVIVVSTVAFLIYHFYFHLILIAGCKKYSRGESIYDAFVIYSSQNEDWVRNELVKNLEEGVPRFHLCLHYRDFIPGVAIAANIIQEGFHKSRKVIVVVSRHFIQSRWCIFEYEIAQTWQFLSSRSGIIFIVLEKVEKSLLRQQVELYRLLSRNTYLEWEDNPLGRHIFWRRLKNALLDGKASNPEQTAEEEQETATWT

Key:
[1] = target: Toll-like receptor 4 (mouse (endogenous in BMDM)) (UniProt Q9QUK6); assay: co-IP; endogenous proteins in BMDM treated with LPS (1 μg/mL) for 1 h
[2] = target: Toll-like receptor 4 (mouse (endogenous in BMDM)) (UniProt Q9QUK6); assay: co-IP; endogenous proteins in BMDM treated with LPS (1 μg/mL) for 1 h after PD168393 (PD) pretreatment for 30 min
[3] = target: RIPK3 (mouse (endogenous in BMDM)), Q9QZL0; assay: immunoblotting; endogenous proteins in BMDM after LPS; named together with confocal microscopy; no further details shown; details: remark: other sources report otherwise

Row | binding [1] | binding [3] | Binder | binding [2]
1 | binds |  | Rab5a (protein, UniProt Q9CQD1 1-215) MANRGATRPNGPNTGNKICQFKLVLLGESAVGKSSLVLRFVKGQFHEFQESTIGAAFLTQTVCLDDTTVKFEIWDTAGQERYHSLAPMYYRGAQAAIVVYDITNEESFARAKNWVKELQRQASPNIVIALSGNKADLANKRAVDFQEAQSYADDNSLLFMETSAKTSMNVNEIFMAIAKKLPKNEPQNPGANSARGRGVDLTEPAQPARSQCCSN | no binding (condition: with PD168393 pretreatment)
2 |  | binds | receptor-interacting serine/threonine-protein kinase 1, Q60855 1-656 (protein) MQPDMSLDNIKMASSDLLEKTDLDSGGFGKVSLCYHRSHGFVILKKVYTGPNRAEYNEVLLEEGKMMHRLRHSRVVKLLGIIIEEGNYSLVMEYMEKGNLMHVLKTQIDVPLSLKGRIIVEAIEGMCYLHDKGVIHKDLKPENILVDRDFHIKIADLGVASFKTWSKLTKEKDNKQKEVSSTTKKNNGGTLYYMAPEHLNDINAKPTEKSDVYSFGIVLWAIFAKKEPYENVICTEQFVICIKSGNRPNVEEILEYCPREIISLMERCWQAIPEDRPTFLGIEEEFRPFYLSHFEEYVEEDVASLKKEYPDQSPVLQRMFSLQHDCVPLPPSRSNSEQPGSLHSSQGLQMGPVEESWFSSSPEYPQDENDRSVQAKLQEEASYHAFGIFAEKQTKPQPRQNEAYNREEERKRRVSHDPFAQQRARENIKSAGARGHSDPSTTSRGIAVQQLSWPATQTVWNNGLYNQHGFGTTGTGVWYPPNLSQMYSTYKTPVPETNIPGSTPTMPYFSGPVADDLIKYTIFNSSGIQIGNHNYMDVGLNSQPPNNTCKEESTSRHQAIFDNTTSLTDEHLNPIRENLGRQWKNCARKLGFTESQIDEIDHDYERDGLKEKVYQMLQKWLMREGTKGATVGKLAQALHQCCRIDLLNHLIRASQS | 
